From patent publication US20090188009A1, “HEAT SHOCK RNA FROM VARIOUS SPECIES AND ITS USE IN ACTIVATION OF HEAT SHOCK TRANSCRIPTION FACTOR, IN TREATMENT OF VARIOUS DISEASES IN ANIMALS AND IN GENERATION OF STRESS-RESISTANT PLANTS” (New York University, published 2009)
Results are given in words; binding and its absence hold for the method and conditions named. Some binding calls cover weakened binding; strength is not graded here.

Protein sequences, listed by entry. Tags and fused reporters are not part of them. Lines headed by an entry give the natural chain unless they say otherwise; changes in a name come on top. Chains listed by the source or under a name are the forms on record and can include a tag or linker.
purified recombinant mouse HSF1 (heat shock transcription factor 1), released from GST-HSF1 by thrombin cleavage (P38532, form named): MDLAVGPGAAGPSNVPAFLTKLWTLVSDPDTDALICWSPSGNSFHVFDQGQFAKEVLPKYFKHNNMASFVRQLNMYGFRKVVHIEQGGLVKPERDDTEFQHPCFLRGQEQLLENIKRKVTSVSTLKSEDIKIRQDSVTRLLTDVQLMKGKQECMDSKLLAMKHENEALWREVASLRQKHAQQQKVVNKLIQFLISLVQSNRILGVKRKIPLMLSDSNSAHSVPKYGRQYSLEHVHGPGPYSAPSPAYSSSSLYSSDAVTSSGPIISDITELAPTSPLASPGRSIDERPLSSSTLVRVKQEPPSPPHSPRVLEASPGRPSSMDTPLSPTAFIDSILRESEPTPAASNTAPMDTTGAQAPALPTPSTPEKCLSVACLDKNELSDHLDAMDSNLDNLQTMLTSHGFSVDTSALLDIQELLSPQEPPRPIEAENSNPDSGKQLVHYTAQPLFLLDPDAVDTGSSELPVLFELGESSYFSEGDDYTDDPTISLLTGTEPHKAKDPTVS

How the values were obtained:
[1] = target: purified recombinant mouse HSF1 (heat shock transcription factor 1), released from GST-HSF1 by thrombin cleavage (mouse) (UniProt P38532); test: self-association (trimer): EGS cross-linking and anti-HSF1 immunoblot; in the presence of eEF1A and HSR1-T3 RNA
[2] = target: purified recombinant mouse HSF1 (heat shock transcription factor 1), released from GST-HSF1 by thrombin cleavage (mouse) (UniProt P38532); test: self-association (trimer): EGS cross-linking, SDS-PAGE, anti-HSF1 immunoblot; in the presence of the eEF1A-containing fraction
[3] = target: purified recombinant mouse HSF1 (heat shock transcription factor 1), released from GST-HSF1 by thrombin cleavage (mouse) (UniProt P38532); test: self-association (trimer): EGS cross-linking, SDS-PAGE, immunoblot with anti-HSF1 8487 polyclonal antibody
[4] = target: purified recombinant mouse HSF1 (heat shock transcription factor 1), released from GST-HSF1 by thrombin cleavage (mouse) (UniProt P38532); test: self-association (trimer): EGS cross-linking, SDS-PAGE, immunoblot with HSF1 8487 polyclonal antibody; in the presence of eEF1A and HSR1-T3 RNA

Measured: binding

purified recombinant mouse HSF1 (heat shock transcription factor 1), released from GST-HSF1 by thrombin cleavage (from UniProt P38532 1-503)
binds: all assays above
